target: Vascular endothelial growth factor receptor 2 (Homo sapiens, UniProt P35968)

Sequences of proteins named here, by UniProt entry; tags and fusion partners are left off.
UniProt P35968, whole entry: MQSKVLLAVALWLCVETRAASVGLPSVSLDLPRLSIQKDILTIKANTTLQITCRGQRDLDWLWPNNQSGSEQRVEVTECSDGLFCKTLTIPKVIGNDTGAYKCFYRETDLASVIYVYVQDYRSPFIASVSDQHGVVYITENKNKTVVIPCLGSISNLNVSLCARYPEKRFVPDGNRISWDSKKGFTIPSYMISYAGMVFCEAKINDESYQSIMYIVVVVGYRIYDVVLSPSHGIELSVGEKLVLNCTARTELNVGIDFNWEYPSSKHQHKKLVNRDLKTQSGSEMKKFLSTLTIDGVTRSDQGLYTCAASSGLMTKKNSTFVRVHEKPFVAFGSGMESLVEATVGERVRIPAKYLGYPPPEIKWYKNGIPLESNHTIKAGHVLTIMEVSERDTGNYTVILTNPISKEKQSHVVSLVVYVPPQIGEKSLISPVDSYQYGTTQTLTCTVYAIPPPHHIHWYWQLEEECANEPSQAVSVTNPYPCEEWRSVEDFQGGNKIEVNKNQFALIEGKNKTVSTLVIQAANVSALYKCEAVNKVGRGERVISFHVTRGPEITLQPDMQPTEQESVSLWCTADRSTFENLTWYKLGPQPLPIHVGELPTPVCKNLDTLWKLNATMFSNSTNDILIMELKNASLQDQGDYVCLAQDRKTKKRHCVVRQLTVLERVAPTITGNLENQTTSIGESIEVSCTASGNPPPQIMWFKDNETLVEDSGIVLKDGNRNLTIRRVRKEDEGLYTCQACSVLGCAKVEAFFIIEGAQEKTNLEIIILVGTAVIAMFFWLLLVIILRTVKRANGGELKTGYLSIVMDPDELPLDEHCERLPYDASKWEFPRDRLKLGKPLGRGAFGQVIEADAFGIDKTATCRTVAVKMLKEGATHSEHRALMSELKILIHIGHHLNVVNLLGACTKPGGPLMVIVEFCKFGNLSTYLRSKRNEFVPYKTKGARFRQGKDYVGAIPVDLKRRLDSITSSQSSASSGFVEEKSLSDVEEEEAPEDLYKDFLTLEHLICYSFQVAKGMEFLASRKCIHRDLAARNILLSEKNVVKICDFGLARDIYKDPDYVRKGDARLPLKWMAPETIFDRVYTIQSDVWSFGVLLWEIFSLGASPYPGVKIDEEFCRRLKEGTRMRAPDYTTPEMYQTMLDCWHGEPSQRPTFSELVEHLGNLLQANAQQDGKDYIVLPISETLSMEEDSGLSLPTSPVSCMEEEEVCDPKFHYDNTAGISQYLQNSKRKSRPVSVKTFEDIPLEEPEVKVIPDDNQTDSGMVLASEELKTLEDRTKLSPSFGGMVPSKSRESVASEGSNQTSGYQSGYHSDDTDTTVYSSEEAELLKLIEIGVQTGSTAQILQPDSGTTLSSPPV

| SMILES | Kd |
| --- | --- |
| Cc1ccc(C)c(Oc2nccc(-c3c(-c4ccc(F)cc4)ncn3C3CCNCC3)n2)c1 [2-(2,5-Dimethyl-phenoxy)-4-[5-(4-fluoro-phenyl)-3-piperidin-4-yl-3H-imidazol-4-yl]-pyrimidine] | 10 µM |
| Cc1cc(C)cc(Oc2nccc(-c3c(-c4ccc(F)cc4)ncn3C3CCNCC3)n2)c1 [2-(3,5-Dimethyl-phenoxy)-4-[5-(4-fluoro-phenyl)-3-piperidin-4-yl-3H-imidazol-4-yl]-pyrimidine] | 10 µM |
| CS(=O)(=O)c1ccccc1-c1nc(-c2ccc(F)cc2)c(-c2ccncc2)[nH]1 [D3RKN_30] | 7 µM |
| O=C(O)c1ccc(-c2nc(-c3ccc(F)cc3)c(-c3ccncc3)[nH]2)cc1 [D3RKN_53] | 10 µM |

From BindingDB's records for doi:10.7270/Q2DJ5KHH (D3R/Abbott, 2020)
